Assay [1] addresses T1, FurA (previously YlaN), Fur antirepressor (bacterial two-hybrid fusion) (Bacillus subtilis) (UniProt O07638).
T1 sequence: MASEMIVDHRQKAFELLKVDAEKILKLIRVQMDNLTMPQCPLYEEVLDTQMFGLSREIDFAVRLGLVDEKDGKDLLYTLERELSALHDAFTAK
Kind of assay: two-hybrid.

Assay [2] concerns the target T1, FurA (previously YlaN), Fur antirepressor (bacterial two-hybrid fusion) (Bacillus subtilis). The assay is described as follows: two-hybrid. This is another data set of the same source.
Assay [3] has as its target T2, FurA-Strep (Bacillus subtilis) (UniProt O07638).
T2 sequence: T1 sequence
Kind of assay: co-IP.

Where two headings read alike, the source gives them in different places. Results are given in words; binding and its absence hold for the method and conditions named. For some assays here: In cells and extracts the contact can be indirect. Some results given as binding are weak or reduced against the parent protein; the word gives no strength. Sequences can lack the tags named with a protein.

B1: Fur, ferric uptake regulator (bacterial two-hybrid fusion) (protein, UniProt P54574 1-149)
chain: MENRIDRIKKQLHSSSYKLTPQREATVRVLLENEEDHLSAEDVYLLVKEKSPEIGLATVYRTLELLTELKVVDKINFGDGVSRYDLRKEGAAHFHHHLVCMECGAVDEIEEDLLEDVEEIIERDWKFKIKDHRLTFHGICHRCNGKETE
For B1, the binding result in assay [1] and in assay [2] was “binds” each time.

B2: Fur-FLAG (protein, UniProt P54574 1-149)
chain: B1 chain
B2: in assay [3], the binding entry is “binds”.

B3: FurA (previously YlaN), Fur antirepressor (bacterial two-hybrid fusion) (protein, UniProt O07638 1-93)
chain: T1 sequence
For the molecule B3, the binding entry in assay [1] and in assay [2] was “binds” in each case.

For the origin of these results see doi:10.1101/2023.09.28.559918.
